The experiment addresses T1, Calumenin (human (endogenous in HeLa)) (UniProt O43852).
T1 sequence: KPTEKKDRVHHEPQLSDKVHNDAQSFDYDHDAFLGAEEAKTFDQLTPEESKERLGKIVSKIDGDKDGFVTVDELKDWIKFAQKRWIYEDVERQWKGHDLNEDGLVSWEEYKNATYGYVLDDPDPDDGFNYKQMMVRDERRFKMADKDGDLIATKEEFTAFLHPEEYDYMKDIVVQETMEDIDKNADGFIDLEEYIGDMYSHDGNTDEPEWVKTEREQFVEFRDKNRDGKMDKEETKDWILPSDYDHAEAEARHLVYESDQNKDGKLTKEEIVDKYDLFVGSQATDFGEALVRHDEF
The experiment in a line: co-IP; reverse co-immunoprecipitation (not shown): anti-calumenin antibody on Protein G magnetic beads, whole cell lysate in RIPA buffer; CFTR detected (mature 170 kDa form).

Protein sequences, listed by entry. Tags and fused reporters are not part of them. Lines headed by an entry give the natural chain unless they say otherwise; changes in a name come on top. Chains listed by the source or under a name are the forms on record and can include a tag or linker.
G551D-CFTR (Gly to Asp at position 551) (P13569-1, form named): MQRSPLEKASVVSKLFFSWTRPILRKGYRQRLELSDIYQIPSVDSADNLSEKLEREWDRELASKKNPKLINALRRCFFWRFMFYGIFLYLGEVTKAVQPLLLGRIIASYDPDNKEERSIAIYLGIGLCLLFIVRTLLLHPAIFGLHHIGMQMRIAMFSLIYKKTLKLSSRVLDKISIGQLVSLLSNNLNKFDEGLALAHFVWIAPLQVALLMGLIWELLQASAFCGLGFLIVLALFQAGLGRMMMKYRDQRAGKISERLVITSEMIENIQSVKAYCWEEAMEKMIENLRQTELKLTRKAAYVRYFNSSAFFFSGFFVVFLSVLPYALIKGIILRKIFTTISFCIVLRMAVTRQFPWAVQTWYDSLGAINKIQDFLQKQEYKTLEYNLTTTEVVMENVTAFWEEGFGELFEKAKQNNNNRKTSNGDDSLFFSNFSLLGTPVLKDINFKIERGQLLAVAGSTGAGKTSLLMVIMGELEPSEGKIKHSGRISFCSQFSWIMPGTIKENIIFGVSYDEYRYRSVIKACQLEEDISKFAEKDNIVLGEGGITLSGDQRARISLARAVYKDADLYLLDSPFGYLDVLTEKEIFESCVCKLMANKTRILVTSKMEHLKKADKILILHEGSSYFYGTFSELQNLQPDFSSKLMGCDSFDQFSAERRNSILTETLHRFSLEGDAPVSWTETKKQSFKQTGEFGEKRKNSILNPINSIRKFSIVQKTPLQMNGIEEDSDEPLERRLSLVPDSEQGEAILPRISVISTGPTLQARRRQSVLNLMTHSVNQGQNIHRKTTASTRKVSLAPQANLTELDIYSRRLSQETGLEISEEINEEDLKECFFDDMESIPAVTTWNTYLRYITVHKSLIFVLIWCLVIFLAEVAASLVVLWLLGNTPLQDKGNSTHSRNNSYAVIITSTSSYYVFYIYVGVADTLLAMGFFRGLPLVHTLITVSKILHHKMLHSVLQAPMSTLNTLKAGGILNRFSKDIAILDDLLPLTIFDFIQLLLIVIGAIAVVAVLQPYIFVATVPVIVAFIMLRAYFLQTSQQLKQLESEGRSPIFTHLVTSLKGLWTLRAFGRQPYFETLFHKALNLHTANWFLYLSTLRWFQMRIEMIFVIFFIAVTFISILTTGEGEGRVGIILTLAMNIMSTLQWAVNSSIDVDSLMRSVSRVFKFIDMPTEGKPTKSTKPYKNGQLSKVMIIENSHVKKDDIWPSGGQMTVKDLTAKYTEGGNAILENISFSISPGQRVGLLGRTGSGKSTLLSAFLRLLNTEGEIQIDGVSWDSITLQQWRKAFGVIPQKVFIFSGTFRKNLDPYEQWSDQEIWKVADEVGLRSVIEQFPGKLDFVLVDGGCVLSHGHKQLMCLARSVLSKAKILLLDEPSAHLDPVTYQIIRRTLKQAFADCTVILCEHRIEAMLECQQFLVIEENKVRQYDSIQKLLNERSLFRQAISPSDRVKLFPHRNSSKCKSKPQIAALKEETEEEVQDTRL

Results are given in words; binding and its absence hold for the method and conditions named. In cells and extracts the contact can be indirect. Some entries that bind do so weakly or less than the wild type.

Take “human wild type CFTR (cystic fibrosis transmembrane conductance regulator) (from UniProt P13569-1 1-1480)”: the binding result is “binds”.
Under “G551D-CFTR (Gly to Asp at position 551) (from UniProt P13569-1 1-1480)” stands “binds”.

The values are drawn from article PMC3387016.
